This is an account of results in PMC6976523.

Amino acid sequences for entries named in this document (tags omitted).
UniProt P78527: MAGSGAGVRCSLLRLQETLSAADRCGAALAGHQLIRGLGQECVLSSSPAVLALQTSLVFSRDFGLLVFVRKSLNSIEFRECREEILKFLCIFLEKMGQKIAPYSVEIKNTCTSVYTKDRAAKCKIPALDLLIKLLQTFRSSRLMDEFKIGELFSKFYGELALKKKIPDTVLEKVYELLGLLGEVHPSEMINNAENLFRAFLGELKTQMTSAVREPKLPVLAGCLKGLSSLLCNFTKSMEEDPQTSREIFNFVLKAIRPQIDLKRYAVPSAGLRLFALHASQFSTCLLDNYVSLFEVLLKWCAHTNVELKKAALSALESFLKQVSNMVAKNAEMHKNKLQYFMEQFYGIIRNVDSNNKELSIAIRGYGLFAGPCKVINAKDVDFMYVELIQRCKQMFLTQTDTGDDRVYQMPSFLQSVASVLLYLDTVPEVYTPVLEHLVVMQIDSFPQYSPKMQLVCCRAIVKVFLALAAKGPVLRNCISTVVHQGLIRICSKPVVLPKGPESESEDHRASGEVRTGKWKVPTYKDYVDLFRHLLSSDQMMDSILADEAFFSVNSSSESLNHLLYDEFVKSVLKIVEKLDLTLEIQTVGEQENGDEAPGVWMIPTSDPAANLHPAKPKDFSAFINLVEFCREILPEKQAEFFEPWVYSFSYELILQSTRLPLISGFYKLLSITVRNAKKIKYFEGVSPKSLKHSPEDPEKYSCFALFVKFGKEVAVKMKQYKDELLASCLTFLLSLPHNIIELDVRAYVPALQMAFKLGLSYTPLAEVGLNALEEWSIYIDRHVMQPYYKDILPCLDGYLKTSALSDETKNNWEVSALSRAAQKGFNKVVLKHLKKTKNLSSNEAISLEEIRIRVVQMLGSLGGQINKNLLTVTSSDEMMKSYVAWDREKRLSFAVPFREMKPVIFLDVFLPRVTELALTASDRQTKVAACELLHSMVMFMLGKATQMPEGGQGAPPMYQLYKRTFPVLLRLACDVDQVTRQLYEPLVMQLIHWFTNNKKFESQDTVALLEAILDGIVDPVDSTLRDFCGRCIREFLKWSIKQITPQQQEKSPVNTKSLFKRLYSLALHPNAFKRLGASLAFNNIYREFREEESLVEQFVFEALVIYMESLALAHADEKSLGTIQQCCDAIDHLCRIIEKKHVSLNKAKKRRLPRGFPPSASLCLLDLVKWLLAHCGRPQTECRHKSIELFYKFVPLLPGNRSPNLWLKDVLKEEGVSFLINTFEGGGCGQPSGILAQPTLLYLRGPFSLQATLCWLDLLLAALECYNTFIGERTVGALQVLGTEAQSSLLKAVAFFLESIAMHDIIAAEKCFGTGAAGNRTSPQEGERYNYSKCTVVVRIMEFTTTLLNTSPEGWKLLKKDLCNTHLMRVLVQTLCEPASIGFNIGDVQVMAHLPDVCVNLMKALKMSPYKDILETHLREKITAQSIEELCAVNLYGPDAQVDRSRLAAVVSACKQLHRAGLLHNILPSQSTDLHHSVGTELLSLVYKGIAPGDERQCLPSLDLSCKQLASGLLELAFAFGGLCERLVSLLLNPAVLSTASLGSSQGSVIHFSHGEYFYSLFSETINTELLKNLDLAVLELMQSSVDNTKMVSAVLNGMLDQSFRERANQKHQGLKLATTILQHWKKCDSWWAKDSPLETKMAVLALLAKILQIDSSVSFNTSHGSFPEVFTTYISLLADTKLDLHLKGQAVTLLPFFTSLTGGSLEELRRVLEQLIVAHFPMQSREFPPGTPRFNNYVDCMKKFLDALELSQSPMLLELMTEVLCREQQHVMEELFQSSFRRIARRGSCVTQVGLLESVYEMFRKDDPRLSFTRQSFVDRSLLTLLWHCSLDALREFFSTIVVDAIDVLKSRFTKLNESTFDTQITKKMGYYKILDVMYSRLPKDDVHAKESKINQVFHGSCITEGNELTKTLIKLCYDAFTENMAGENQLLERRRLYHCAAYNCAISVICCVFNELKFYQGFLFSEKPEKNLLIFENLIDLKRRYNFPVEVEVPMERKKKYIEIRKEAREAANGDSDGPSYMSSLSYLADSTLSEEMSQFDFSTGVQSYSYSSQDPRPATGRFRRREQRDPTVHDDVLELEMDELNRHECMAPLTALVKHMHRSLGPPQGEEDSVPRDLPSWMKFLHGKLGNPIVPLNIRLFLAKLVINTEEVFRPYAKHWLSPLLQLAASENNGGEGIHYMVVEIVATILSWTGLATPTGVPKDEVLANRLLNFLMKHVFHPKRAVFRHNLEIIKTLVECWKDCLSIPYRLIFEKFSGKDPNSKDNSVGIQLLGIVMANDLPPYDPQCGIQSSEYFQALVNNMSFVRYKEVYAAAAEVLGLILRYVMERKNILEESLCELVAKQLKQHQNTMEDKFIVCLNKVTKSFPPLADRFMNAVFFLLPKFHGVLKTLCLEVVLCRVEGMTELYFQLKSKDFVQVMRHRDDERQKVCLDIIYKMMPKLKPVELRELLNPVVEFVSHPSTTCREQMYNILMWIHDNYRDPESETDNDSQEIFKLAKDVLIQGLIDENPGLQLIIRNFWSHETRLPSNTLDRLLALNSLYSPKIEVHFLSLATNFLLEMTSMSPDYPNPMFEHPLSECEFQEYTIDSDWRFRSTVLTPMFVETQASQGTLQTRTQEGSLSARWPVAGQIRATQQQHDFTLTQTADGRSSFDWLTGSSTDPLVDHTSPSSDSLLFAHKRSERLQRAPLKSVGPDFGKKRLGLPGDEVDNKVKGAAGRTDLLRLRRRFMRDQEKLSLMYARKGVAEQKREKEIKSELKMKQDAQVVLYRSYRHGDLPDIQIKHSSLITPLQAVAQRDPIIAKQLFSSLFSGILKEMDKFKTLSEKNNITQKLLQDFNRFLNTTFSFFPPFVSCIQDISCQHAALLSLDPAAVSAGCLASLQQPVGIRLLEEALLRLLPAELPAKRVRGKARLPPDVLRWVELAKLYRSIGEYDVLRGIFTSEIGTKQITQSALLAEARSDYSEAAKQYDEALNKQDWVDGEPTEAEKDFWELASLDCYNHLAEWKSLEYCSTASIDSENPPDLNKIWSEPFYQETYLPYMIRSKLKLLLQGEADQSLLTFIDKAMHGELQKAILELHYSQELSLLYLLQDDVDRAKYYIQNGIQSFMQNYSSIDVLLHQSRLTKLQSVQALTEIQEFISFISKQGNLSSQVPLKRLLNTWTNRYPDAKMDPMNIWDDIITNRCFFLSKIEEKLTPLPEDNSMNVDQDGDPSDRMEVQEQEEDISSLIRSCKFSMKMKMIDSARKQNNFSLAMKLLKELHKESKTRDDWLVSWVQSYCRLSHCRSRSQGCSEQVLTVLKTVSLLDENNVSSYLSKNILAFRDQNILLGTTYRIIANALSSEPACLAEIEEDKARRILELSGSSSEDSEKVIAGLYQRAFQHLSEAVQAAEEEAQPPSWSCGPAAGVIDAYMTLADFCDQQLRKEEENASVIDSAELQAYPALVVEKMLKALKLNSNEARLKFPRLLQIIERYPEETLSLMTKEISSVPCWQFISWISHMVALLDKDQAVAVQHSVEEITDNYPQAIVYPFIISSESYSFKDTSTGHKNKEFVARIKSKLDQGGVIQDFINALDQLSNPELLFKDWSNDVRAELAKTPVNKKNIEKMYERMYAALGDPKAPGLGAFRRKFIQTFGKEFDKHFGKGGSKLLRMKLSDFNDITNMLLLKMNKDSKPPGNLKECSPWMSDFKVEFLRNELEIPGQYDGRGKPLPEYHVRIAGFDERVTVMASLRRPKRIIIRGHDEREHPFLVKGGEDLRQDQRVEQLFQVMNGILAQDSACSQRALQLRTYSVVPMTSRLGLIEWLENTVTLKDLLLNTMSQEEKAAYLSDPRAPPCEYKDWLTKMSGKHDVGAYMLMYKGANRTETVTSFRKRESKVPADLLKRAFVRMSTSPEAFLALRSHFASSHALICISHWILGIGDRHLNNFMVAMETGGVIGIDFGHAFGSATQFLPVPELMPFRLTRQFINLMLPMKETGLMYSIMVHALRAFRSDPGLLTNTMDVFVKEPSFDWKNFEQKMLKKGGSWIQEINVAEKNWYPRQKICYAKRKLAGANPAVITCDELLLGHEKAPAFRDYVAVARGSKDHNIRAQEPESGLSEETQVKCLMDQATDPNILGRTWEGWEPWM
UniProt Q13426: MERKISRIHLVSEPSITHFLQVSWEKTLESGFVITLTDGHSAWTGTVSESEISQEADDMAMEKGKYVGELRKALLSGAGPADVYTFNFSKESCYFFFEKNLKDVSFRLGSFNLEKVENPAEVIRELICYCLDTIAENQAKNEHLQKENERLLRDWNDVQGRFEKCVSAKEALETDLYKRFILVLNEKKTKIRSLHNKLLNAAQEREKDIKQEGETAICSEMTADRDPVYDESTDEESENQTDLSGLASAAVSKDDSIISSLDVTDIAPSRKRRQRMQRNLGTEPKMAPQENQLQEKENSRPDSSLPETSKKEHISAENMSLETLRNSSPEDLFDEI

These are yes or no findings as the source states them, for the method shown. In cells and extracts the contact can be indirect. Some results given as binding are weak or reduced against the parent protein; the word gives no strength. For part of these data: Tags and fused reporters may be left off the sequences shown.

Assay [1] addresses ZNF281, endogenous (human (endogenous in HEK293)) (UniProt Q9Y2X9). Briefly: co-IP; at the endogenous level and in different cell lines (Supplementary Fig. S2a, b); bait and cell lines not given.
Assay [2] concerns the target FLAG-tagged ZNF281 1-174 (UniProt Q9Y2X9). Briefly: co-IP; full-length and mutant FLAG-tagged ZNF281 constructs transfected into HEK293T cells and used as bait; endogenous partners detected.
The target of assay [3] is FLAG-tagged full-length ZNF281 (ZNF281 1-895) (UniProt Q9Y2X9). Described as above.
For assay [4] the target is unchanged. Nature of the assay: co-IP; immunoprecipitation of FLAG-tagged proteins from HEK293T or HEK293 cells; endogenous partners detected; wash steps with increasing salt, 150 to 600 mM NaCl.
In assay [5] the target is FLAG-tagged ZNF281 1-379 (UniProt Q9Y2X9). Briefly: co-IP; full-length and mutant FLAG-tagged ZNF281 constructs transfected into HEK293T cells and used as bait; endogenous partners detected.

Take “DNA-PKcs (catalytic subunit of the DNA-PK subcomplex), endogenous (from UniProt P78527 1-4128)”: the binding entry in assay [1], in assay [2], in assay [3] and in assay [4] was “binds” each time.
As to “XRCC4 (X-Ray Repair Cross Complementing 4), endogenous (from UniProt Q13426 1-336)”, the binding entry is reported as “binds” in assay [1]; “no binding” in assay [2]; “binds” in assay [3]; “binds” in assay [5]; “binds” in assay [4].
